The source of these data is publication doi:10.1101/2021.01.05.423837.

By UniProt entry, the sequences of proteins in these tests, tags left out.
UniProt P43694: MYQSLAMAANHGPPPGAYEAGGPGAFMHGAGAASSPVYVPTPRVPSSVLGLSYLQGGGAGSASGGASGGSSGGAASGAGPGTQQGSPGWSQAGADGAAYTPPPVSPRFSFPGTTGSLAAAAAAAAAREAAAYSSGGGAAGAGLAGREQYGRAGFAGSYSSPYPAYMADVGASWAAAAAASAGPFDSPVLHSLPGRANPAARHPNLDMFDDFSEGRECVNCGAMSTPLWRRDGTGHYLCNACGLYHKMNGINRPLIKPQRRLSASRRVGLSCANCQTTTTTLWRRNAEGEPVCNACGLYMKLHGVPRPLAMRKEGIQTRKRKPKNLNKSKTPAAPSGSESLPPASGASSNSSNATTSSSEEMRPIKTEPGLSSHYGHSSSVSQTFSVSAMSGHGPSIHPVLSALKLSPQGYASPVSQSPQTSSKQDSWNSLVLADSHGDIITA
UniProt Q92922: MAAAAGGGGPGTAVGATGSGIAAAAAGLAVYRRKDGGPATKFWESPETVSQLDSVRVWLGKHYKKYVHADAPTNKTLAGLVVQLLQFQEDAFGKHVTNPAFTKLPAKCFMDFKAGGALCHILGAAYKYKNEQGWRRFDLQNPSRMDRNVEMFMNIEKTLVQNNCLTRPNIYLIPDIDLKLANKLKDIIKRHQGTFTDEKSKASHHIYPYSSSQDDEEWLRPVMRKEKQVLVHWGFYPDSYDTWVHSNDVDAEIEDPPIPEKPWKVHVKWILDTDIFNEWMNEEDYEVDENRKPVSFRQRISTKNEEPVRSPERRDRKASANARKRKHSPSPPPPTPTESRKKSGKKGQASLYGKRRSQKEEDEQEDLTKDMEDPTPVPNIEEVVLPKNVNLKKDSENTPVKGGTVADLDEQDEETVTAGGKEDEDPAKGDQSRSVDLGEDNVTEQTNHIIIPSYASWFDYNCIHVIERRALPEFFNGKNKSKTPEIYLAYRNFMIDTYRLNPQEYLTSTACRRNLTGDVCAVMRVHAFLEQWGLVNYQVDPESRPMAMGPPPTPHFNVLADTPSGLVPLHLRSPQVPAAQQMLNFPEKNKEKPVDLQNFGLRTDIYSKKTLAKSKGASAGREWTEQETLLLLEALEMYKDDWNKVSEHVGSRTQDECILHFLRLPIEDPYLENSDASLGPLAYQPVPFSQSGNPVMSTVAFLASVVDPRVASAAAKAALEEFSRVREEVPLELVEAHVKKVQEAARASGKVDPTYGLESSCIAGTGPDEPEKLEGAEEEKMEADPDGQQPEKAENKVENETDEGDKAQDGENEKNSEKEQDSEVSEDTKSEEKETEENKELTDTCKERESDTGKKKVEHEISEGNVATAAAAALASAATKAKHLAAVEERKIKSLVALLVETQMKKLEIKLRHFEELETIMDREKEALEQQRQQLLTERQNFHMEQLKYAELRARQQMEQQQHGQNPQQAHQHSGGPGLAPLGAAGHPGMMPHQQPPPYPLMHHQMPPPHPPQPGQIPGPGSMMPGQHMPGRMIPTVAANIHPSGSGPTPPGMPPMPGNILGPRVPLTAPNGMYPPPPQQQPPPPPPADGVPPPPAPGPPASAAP

Results are given in words; binding and its absence hold for the method and conditions named. Binding seen in cells or lysates may run through a third protein. Here binding means that the protein was enriched with, or labelled near, the bait; the list need not be complete.

This test has as its target GATA4 (endogenous, human iPSC-derived cardiac progenitors) (human (endogenous in hiPSC-derived cardiac progenitors)) (UniProt P43694). As to the kind of experiment: affinity purification with mass spectrometry.

For the molecule “SMARCC1 (endogenous, human iPSC-derived cardiac progenitors) (from UniProt Q92922 1-1105)”, the binding entry was “binds”.

B1: GLYR1 (endogenous, human iPSC-derived cardiac progenitors) (protein, UniProt Q49A26 1-553)
chain: MAAVSLRLGDLVWGKLGRYPPWPGKIVNPPKDLKKPRGKKCFFVKFFGTEDHAWIKVEQLKPYHAHKEEMIKINKGKRFQQAVDAVEEFLRRAKGKDQTSSHNSSDDKNRRNSSEERSRPNSGDEKRKLSLSEGKVKKNMGEGKKRVSSGSSERGSKSPLKRAQEQSPRKRGRPPKDEKDLTIPESSTVKGMMAGPMAAFKWQPTASEPVKDADPHFHHFLLSQTEKPAVCYQAITKKLKICEEETGSTSIQAADSTAVNGSITPTDKKIGFLGLGLMGSGIVSNLLKMGHTVTVWNRTAEKCDLFIQEGARLGRTPAEVVSTCDITFACVSDPKAAKDLVLGPSGVLQGIRPGKCYVDMSTVDADTVTELAQVIVSRGGRFLEAPVSGNQQLSNDGMLVILAAGDRGLYEDCSSCFQAMGKTSFFLGEVGNAAKMMLIVNMVQGSFMATIAEGLTLAQVTGQSQQTLLDILNQGQLASIFLDQKCQNILQGNFKPDFYLKYIQKDLRLAIALGDAVNHPTPMAAAANEVYKRAKALDQSDNDMSAVYRAYIH
Consider B1, for which the binding result is recorded as “binds”.
